Results as given in PubChem BioAssay AID1347421 (Sanford-Burnham Center for Chemical Genomics, 2020).
The full ranking holds about 1,500 compounds; the median of “activity” is about 2, and the lowest 2% start at about -18. The list shows a part of the results. The source made the active and inactive calls.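 The calls were made as follows: active = inhibition of at least 40% at 10 µM; inconclusive = no clear call, values can overlap the other calls; inactive = the rest.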

Sequences of proteins named here, by UniProt entry; tags and fusion partners are left off. A change or cut given only in a name is not applied to a line headed by its entry.
UniProt O00391: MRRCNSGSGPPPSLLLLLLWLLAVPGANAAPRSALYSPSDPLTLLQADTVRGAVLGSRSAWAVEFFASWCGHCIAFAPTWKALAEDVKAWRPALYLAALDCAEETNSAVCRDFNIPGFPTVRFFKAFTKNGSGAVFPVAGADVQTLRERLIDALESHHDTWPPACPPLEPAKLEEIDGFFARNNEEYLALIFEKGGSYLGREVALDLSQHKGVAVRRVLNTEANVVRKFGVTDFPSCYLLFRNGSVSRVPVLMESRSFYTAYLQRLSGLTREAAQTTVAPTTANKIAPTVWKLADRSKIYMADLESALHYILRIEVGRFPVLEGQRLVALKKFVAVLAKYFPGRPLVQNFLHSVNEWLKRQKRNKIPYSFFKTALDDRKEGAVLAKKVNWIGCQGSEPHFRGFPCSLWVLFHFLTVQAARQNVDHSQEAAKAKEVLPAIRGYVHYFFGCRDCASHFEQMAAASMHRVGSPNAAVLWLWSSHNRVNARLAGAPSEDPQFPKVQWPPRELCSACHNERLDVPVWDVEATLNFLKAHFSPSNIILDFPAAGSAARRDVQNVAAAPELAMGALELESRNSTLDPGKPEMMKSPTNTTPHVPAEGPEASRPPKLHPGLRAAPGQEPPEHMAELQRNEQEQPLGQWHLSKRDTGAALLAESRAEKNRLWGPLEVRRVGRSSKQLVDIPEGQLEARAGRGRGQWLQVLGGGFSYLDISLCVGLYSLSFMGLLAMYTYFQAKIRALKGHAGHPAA

What follows are compounds tested against Sulfhydryl oxidase 1 (Homo sapiens) (UniProt O00391) (assay: human QSOX1 sulfhydryl oxidase inhibition – biochemical, ROS-Glo luminescence, single concentration, confirmation (AID 1347421;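 also: 0% = DMSO wells with enzyme and 100% = wells lacking QSOX1 enzyme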)). Settings: recombinant hQSOX1, RNase A substrate, ROS-Glo H2O2 luminescence; at 10 µM.

Row | Structure (SMILES) | activity
1 | COC(=O)c1ccc(-c2nc(CN(C)C(C)c3nc(C)cs3)c(C)o2)cc1 (stereo not given) | 4.2%
2 | CCn1ncc(CNC(C)c2cnn(-c3ccccc3)c2C)c1C (stereo not given) | inactive: -2.3%
3 | Cc1nnc(SCC(=O)NC23CC4CC(CC(C4)C2)C3)s1 | inactive: -16.4%
4 | O=C(c1cnccn1)N1CCc2onc(-c3ccc(F)c(F)c3)c2C1 | inactive: -0.4%
5 | O=C(CCc1cnccn1)NC1CCCN(C2CCCCCC2)C1 (stereo not given) | 5.1%
6 | CN(CCOc1ccccc1)Cc1nc(-c2ccccn2)no1 | 3.2%
7 | CC(C)(C)NC(=O)c1ccccc1NC(=O)c1cccnc1 | 0.6%
8 | CCN1CCCC1CNC(=O)CCC1CCN(C(=O)CCN2CCCCO2)CC1 (stereo not given) | inactive: -7.1%
9 | CC1CCN(Cc2nnnn2CC(=O)NCCCOc2cccnc2)CC1 | inactive: -3%
10 | COCc1ccc(CN2CCC(CCC(=O)Nc3ccc(OC)cc3OC)CC2)o1 | 7.4%
11 | CN(CCc1ccccn1)[C@@H]1CCN(Cc2ccc(C#CCO)s2)C[C@H]1O | 4.2%
12 | Cc1ccc(C)c(NC(=O)N2CCN(c3ccc(N4CCCCC4)nn3)CC2)c1 | inactive: -2.6%
13 | O=C(NC(=O)N1CCCC1)c1ccc(Cl)cc1 | inactive: -2.8%
14 | COc1cnc(N2CC(N3CCOCC3)C2)nc1-c1ccnn1C | 9.4%
15 | CC(C)CCCC1CN(C(=O)c2ccc(N3CCCC3=O)cc2)CCO1 (stereo not given) | 7.7%
16 | C#CCN(CC=C)C(=O)CCc1nnc(Cc2cccc(C)c2)o1 | 10.7%
17 | COc1ccc(CNCCN2CCCC2)cc1OCC(O)CN(C)C(C)C (stereo not given) | 4.7%
18 | CC(=O)N1CCN(c2ncccc2CNCc2ccccc2-c2ccco2)CC1 | inactive: -0.1%
19 | COCC(=O)N1CCC(Oc2ccc(C(=O)NCC3CCOCC3)cc2)CC1 | 8%
20 | OCC1CCN(C2CCCN(Cc3cccc(OC4CCCC4)c3)C2)CC1 (stereo not given) | 7%
21 | CC(C)Oc1ccc(NC(=O)CCN2C(=O)c3ccccc3C2=O)cc1 | 0.6%
22 | Fc1ccc(C2(c3noc(-c4cn5ccsc5n4)n3)CCOC2)cc1 (stereo not given) | 0.2%
23 | C=CCNC(=O)N1CCC2(CCCN(Cc3cccc(C)c3)C2=O)C1 (stereo not given) | 4.7%
24 | COc1ccc2oc3nc(=O)c4ccccc4c-3cc2c1 | inactive: -123%
25 | CCN(CC)CCN(C)Cc1nc(-c2ccc(C(F)(F)F)cc2)no1 | 3.8%
26 | CN(CC(O)COc1ccccc1CNCCc1cnc[nH]1)C1CCCCC1 (stereo not given) | 6.7%
27 | COC(=O)CN(C)Cc1ccc(OC)c(OCC(O)CN2CCN(C)CC2)c1 (stereo not given) | inactive: -9.1%
28 | Cc1ccccc1CCC1CCCN(Cc2nc[nH]c2C)C1 (stereo not given) | inactive: -0.6%
29 | COc1ccc(CNCc2cc(C)no2)cc1OCC(O)CN1CCCC1 (stereo not given) | 5.2%
30 | COCC1CCN(Cc2ccc(OC)cc2OCC(O)CN2CCN(C)CC2)CC1 (stereo not given) | inactive: -0.7%

2 of the compounds above, tab-delimited:
Row	Structure (SMILES)	activity
10	COCc1ccc(CN2CCC(CCC(=O)Nc3ccc(OC)cc3OC)CC2)o1	7.4%
11	CN(CCc1ccccn1)[C@@H]1CCN(Cc2ccc(C#CCO)s2)C[C@H]1O	4.2%
